Experimental data published in publication PMC7819943, “Rice protein-binding microarrays: a tool to detect cis-acting elements near promoter regions in rice”.
The list shows a part of the results.

Amino acid sequences for entries named in this document (tags omitted).
UniProt Q0JBA9, entry or part of it: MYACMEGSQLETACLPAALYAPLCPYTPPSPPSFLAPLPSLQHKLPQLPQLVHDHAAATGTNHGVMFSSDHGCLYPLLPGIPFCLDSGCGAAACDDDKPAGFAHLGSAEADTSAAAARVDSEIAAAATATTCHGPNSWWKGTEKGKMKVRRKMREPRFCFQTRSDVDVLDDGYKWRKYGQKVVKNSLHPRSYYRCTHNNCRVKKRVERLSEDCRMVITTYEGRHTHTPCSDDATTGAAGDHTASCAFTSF

Each sequence was assayed against OsWRKY34 (Oryza sativa, UniProt Q0JBA9 1-250) (assay: protein-binding microarray (RPBM); PBS, 2% BSA, 51.3 ng/ul salmon testes DNA, 50 uM zinc acetate, 200 nM TF, 25 C, 1 h; high values mean tight binding). Conditions: protein: recombinant; tags: N-terminal polyhistidine and DsRed monomer fusion (pET32a); label: CyDye5-dUTP incorporated in the synthesized complementary strand; 3' TTTTT single-stranded linker to array surface; dsDNA, one strand shown.
How it was run: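 Binding signal is reported as fluorescence intensity per feature (arbitrary units) from an Axon 4000B scanner. Incubation used 200 nM of each Ni–NTA-purified, N-terminally polyhistidine- and DsRed-fused transcription factor from E. coli BL21-CodonPlus on a double-stranded custom Agilent array for 1 h at 25 °C, with 50 µM zinc acetate in the buffer, followed by washing.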

| Sequence | binding signal |
| --- | --- |
| AGCCGATGCTCCTCCTCCTCCACCCTATTCCTCCTCGCATCGGAGTCACCTAGTGCAG | 8650 fluorescence intensity (a.u.) |
| GGTCTGCTCTTTCTTGACCTCTGTAACTGCTTTTCCTTCTCGGAGTCACCTAGTGCAG | 10600 fluorescence intensity (a.u.) |
| CGCCATCCGAAATTCCCGTATCCTCTCGAGTCTCGTCTTCCGGAGTCACCTAGTGCAG | 8470 fluorescence intensity (a.u.) |
| CTCCACTCCACCTCACACGCCTCATCGACCTCCCAAGAACCGGAGTCACCTAGTGCAG | 8580 fluorescence intensity (a.u.) |
| GATGCCCTTGAGTTGAGGGAGGTTTACTTGTTTGGTCGGCCGGAGTCACCTAGTGCAG | 8340 fluorescence intensity (a.u.) |
| ATGCTTGTGTATTCATAGTGATTATCAATTTAATCTTGTTCGGAGTCACCTAGTGCAG | 8570 fluorescence intensity (a.u.) |
| CGTCTTCCTCTTCTTCTTGTTGTTGTTGGCGATGTCGGCGCGGAGTCACCTAGTGCAG | 8260 fluorescence intensity (a.u.) |
| CCGACCCCGTCCACTGGCTGGTCTGCACTCTCCCATCTCACGGAGTCACCTAGTGCAG | 8180 fluorescence intensity (a.u.) |
| GACCTTAAACTTTCCTACTCTTTTTTCCATCTAGAGAAGACGGAGTCACCTAGTGCAG | 8300 fluorescence intensity (a.u.) |
| ACAGGATCCAACTATTATTCCTCATGCTCTTCTCTTAGGTCGGAGTCACCTAGTGCAG | 9010 fluorescence intensity (a.u.) |
| ACTGTACTCCCACGTTTACTAAAACCACCGCGAATTGGGTCGGAGTCACCTAGTGCAG | 9690 fluorescence intensity (a.u.) |
| GTTCGTAGGGGTAGGATTTGCATGCGTGTATTTGTAGGGGCGGAGTCACCTAGTGCAG | 13700 fluorescence intensity (a.u.) |
| CGACGCCGACCTCATGGCCCGCGCCACCACCACCCGCGCCCGGAGTCACCTAGTGCAG | 8220 fluorescence intensity (a.u.) |
| AGTTAATTATGTGCCGGTCCCCGCTGTTGTCCACCATCCGCGGAGTCACCTAGTGCAG | 9010 fluorescence intensity (a.u.) |
| GACGGCGCCCTGCGGCTTCGGTTGCGGGGTGGGTGGTGGCCGGAGTCACCTAGTGCAG | 10300 fluorescence intensity (a.u.) |
| GCTCATATTCCCGATTGATATGTTGGTGAATGGTAATTTTCGGAGTCACCTAGTGCAG | 9760 fluorescence intensity (a.u.) |
| GACGCGGTCCACGGAACACCACCACCTCATTTTTGGCGGGCGGAGTCACCTAGTGCAG | 9380 fluorescence intensity (a.u.) |
| CACCCCGGTTCGGGAAGATTCGTCCATGGCTGCCCTGTCGCGGAGTCACCTAGTGCAG | 8370 fluorescence intensity (a.u.) |
| TTTTTTTTCTTTCTGTTCTGTTTCTGTTGAGAAACAAAGACGGAGTCACCTAGTGCAG | 8450 fluorescence intensity (a.u.) |
| GGGGCGGAAACGGGCGAGGGAGGCGCGGGGAGGGTTTAAACGGAGTCACCTAGTGCAG | 22600 fluorescence intensity (a.u.) |
| TCGACTCCACCACACTCCAGTCCAGTCCAGTACACTCCGCCGGAGTCACCTAGTGCAG | 9040 fluorescence intensity (a.u.) |

Taken from the entries so far for reference:

| Sequence | binding signal |
| --- | --- |
| CCGACCCCGTCCACTGGCTGGTCTGCACTCTCCCATCTCACGGAGTCACCTAGTGCAG | 8180 fluorescence intensity (a.u.) |
| GACCTTAAACTTTCCTACTCTTTTTTCCATCTAGAGAAGACGGAGTCACCTAGTGCAG | 8300 fluorescence intensity (a.u.) |
| ACAGGATCCAACTATTATTCCTCATGCTCTTCTCTTAGGTCGGAGTCACCTAGTGCAG | 9010 fluorescence intensity (a.u.) |
| ACTGTACTCCCACGTTTACTAAAACCACCGCGAATTGGGTCGGAGTCACCTAGTGCAG | 9690 fluorescence intensity (a.u.) |
| GTTCGTAGGGGTAGGATTTGCATGCGTGTATTTGTAGGGGCGGAGTCACCTAGTGCAG | 13700 fluorescence intensity (a.u.) |
| CGACGCCGACCTCATGGCCCGCGCCACCACCACCCGCGCCCGGAGTCACCTAGTGCAG | 8220 fluorescence intensity (a.u.) |
| AGTTAATTATGTGCCGGTCCCCGCTGTTGTCCACCATCCGCGGAGTCACCTAGTGCAG | 9010 fluorescence intensity (a.u.) |
| GACGGCGCCCTGCGGCTTCGGTTGCGGGGTGGGTGGTGGCCGGAGTCACCTAGTGCAG | 10300 fluorescence intensity (a.u.) |
| GCTCATATTCCCGATTGATATGTTGGTGAATGGTAATTTTCGGAGTCACCTAGTGCAG | 9760 fluorescence intensity (a.u.) |
| GACGCGGTCCACGGAACACCACCACCTCATTTTTGGCGGGCGGAGTCACCTAGTGCAG | 9380 fluorescence intensity (a.u.) |

Continued:

| Sequence | binding signal |
| --- | --- |
| TAGTTCCAAAATATTTCTTCAAACTTCAAACTTCTTCATCCGGAGTCACCTAGTGCAG | 8610 fluorescence intensity (a.u.) |
| CCACCTGTCATCGTCACCGTTAAGCAAAAACGACTTTTCACGGAGTCACCTAGTGCAG | 8380 fluorescence intensity (a.u.) |
| CCATATATTTTTTTAACTTTTTCCTTTTGTTTTTTATTTTCGGAGTCACCTAGTGCAG | 8870 fluorescence intensity (a.u.) |
| TCCGTTTTGCAGTTGTGGCATCTTCAAGGGTTCTTCCGGACGGAGTCACCTAGTGCAG | 8530 fluorescence intensity (a.u.) |
| CTTGGTTAATTTCCTTTGAGTCTATCTCTCTCATCCAATTCGGAGTCACCTAGTGCAG | 8900 fluorescence intensity (a.u.) |
| AGTCCATCTAATTCGGCTGCACTCTTTTTCCCCTGTGAAGCGGAGTCACCTAGTGCAG | 8530 fluorescence intensity (a.u.) |
| CCCAGTCTCCTTCTATACATATACGTGTACCCTCTGCTTCCGGAGTCACCTAGTGCAG | 8580 fluorescence intensity (a.u.) |
| TGCGTATCTTCAGCCTCGTTAATTTCCATGTTACTAGTATCGGAGTCACCTAGTGCAG | 8610 fluorescence intensity (a.u.) |
| GCGTGTTAAAAAAACGGCCACAGTCAACCACCAAAACTATCGGAGTCACCTAGTGCAG | 8120 fluorescence intensity (a.u.) |
| CTGTAAATCATATACACTTCTTGGAATGACGCTTTAATTCCGGAGTCACCTAGTGCAG | 8540 fluorescence intensity (a.u.) |
| TGTTGGAATTCAATGAGTGTTTGTTGTGTATCCTTCTGATCGGAGTCACCTAGTGCAG | 8100 fluorescence intensity (a.u.) |
| GGCCACTCCTCCACGCACACACCTCTCTCTCTCTCTCTCTCGGAGTCACCTAGTGCAG | 9210 fluorescence intensity (a.u.) |
| AAGGAAAGCAATAAACACAGTAACTCCACCCAACTATTTCCGGAGTCACCTAGTGCAG | 9620 fluorescence intensity (a.u.) |
| TATTGTTTGCCTTCCAGCGTATATAAGCCATTGCGAAATTCGGAGTCACCTAGTGCAG | 8180 fluorescence intensity (a.u.) |
| CTGTCTCAACCTGCATTTGCTCTGTTCCAAAATTCTCTCCCGGAGTCACCTAGTGCAG | 10700 fluorescence intensity (a.u.) |
| CTCCCCACTCACCATCTCCCCGTGGTGTCCTCCGCGGCTCCGGAGTCACCTAGTGCAG | 8800 fluorescence intensity (a.u.) |
| GGCTGCTATTCCGCTTCTTTCCGCTCGGACCAGCCCACTACGGAGTCACCTAGTGCAG | 10500 fluorescence intensity (a.u.) |
| CCTCGATGCGAAAAACGAGTTTTTTTTTCTTCTTCGTCTTCGGAGTCACCTAGTGCAG | 11000 fluorescence intensity (a.u.) |
| GCTCCGCTTCTCCTCTCCCATCTCTCGCTTCGCTCCGCTTCGGAGTCACCTAGTGCAG | 8800 fluorescence intensity (a.u.) |
| ACTCCGACCACCACGCCCCGCCCATGGGTCCTCCGAGCGTCGGAGTCACCTAGTGCAG | 10100 fluorescence intensity (a.u.) |
| GCTCCCGTTTTGGGCGACCTTGGGTCTCTTGGGGTCGGTGCGGAGTCACCTAGTGCAG | 8320 fluorescence intensity (a.u.) |
